The whole screen tested about 310,000 compounds, of which about 17,000 (5.5%) were called active. This list was built around the results that the source calls inconclusive (neither active nor inactive); the mix of calls is not that of the screen. Calls come from the whole dose curve; as a rule, active = well fitted inhibition curve with a large enough effect; inconclusive = small, poorly fitted or top-dose-only effect, or effect the other way; inactive = no such curve, though single readings can be large or run the other way. A potency beside an inconclusive call is a rough fit, not a confirmed value.
Target: Nuclear receptor ROR-gamma (Mus musculus) (UniProt P51450)
Assay: qHTS for inhibitors of ROR gamma transcriptional activity; note: nearly all actives have a fitted effect of over 60% in size
Conditions: Drosophila S2 Gal4-RORgamma UAS-luciferase reporter, 20 h; activity change, negative = inhibition: at 53.6 µM (top of the series)
Procedure, shortened: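 Luminescence from a UAS-regulated Photinus luciferase reporter in stably transfected Drosophila Schneider cells is measured; decreased signal marks ROR gamma inhibition. Fusion expression is induced by 700 uM copper sulfate for 20 hr.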
% is set by controls: 0 for no effect and ±100 for the full control effect; potency is the fitted concentration of half-maximal effect.

Chains of the proteins cited; added tags and fusions are not shown. Lines headed by an entry give the natural chain unless they say otherwise; changes in a name come on top.
UniProt P51450: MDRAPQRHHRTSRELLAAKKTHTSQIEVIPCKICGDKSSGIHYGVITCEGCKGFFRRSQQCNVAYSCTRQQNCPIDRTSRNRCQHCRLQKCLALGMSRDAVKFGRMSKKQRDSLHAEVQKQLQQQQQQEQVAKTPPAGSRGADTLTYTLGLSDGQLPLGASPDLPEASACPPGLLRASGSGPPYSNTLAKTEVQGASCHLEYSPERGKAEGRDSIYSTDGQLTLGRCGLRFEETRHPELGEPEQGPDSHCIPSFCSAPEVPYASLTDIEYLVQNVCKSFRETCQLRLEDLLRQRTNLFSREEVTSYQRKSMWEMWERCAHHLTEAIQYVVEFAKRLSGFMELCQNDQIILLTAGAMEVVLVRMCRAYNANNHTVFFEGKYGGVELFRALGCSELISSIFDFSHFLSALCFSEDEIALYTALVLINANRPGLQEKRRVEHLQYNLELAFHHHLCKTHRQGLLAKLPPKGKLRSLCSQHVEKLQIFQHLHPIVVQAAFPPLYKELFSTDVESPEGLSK

Row | Compound | Potency | activity change, negative = inhibition
1 | CCc1nnc(NC(=O)c2cccc(C(=O)Nc3nnc(CC)s3)n2)s1 | active: 0.0178 µM | –
2 | C=CCn1c(SCC(=O)/C(C#N)=C(\C)N)nc2sc(C)c(C)c2c1=O | inconclusive: 5.01 µM [activator, single point] | –
3 | S=C(Nc1ccc(Nc2ccccc2)cc1)NN1CCOCC1 | inconclusive: 1.58 µM [inhibitor, partial curve, poor fit] | –
4 | CCOC(=O)c1cn(-c2c(Cl)cccc2Cl)c2cc(Cl)c([N+](=O)[O-])cc2c1=O | inconclusive: 15.8 µM [activator, partial curve] | –
5 | N#Cc1c(Cl)nsc1NN | inconclusive: 35.5 µM [inhibitor, single point] | –
6 | Cc1nn(C)c(C(=O)N/N=C/c2cccc3ccccc23)c1Cl | inconclusive: 22.4 µM [inhibitor, single point] | –
7 | CCOc1cc(CNCCc2ccc(S(N)(=O)=O)cc2)ccc1OCc1ccc(Cl)cc1 | inconclusive: 35.5 µM [inhibitor, single point] | –
8 | Cc1cccn2c(=O)c3cc(C(=O)NCCc4ccccc4)c(=N)n(CC4CCCO4)c3nc12 (stereo unspecified) | – | inactive: -16.9%
9 | Cc1cc(=O)[nH]c(SCC(=O)Nc2ccc(Br)cn2)n1 | inconclusive: 35.5 µM [activator, single point] | –
10 | CCO[C@H]1OC(C(N)=O)=C[C@@H](c2csc3ccccc23)[C@@H]1CCCO | inconclusive: 35.5 µM [activator, single point] | –
11 | O=C1CS/C(=N/N=C/c2ccccc2OS(=O)(=O)c2ccccc2)N1 | inconclusive: 2.51 µM [inhibitor, full curve] | –
12 | Fc1ccccc1-c1n[nH]c(=S)n1/N=C/c1c[nH]c2ccccc12 | inconclusive: 11.2 µM [inhibitor, partial curve] | –
13 | CC1CCCN(C(=O)c2ccc(OC3CCN(CCc4ccccc4)CC3)cc2)C1 (stereo unspecified) | – | inactive: 11.1%
14 | Cc1ccc(N(Cc2cc(=O)[nH]c3ccccc23)C(=O)CCl)c(C)c1 | inconclusive: 8.91 µM [inhibitor, partial curve, poor fit] | –
15 | O=C1CN=C(Nc2ccccc2Cl)N1Cc1ccc2c(c1)OCO2 | inconclusive: 35.5 µM [activator, single point] | –
16 | CCn1c(=O)c(C(=O)NCc2ccc(Cl)cc2)c(O)c2ccccc21 | inconclusive: 35.5 µM [inhibitor, single point] | –
17 | Cc1cccc(C)c1N(CC(O)Cn1c2ccccc2c2ccccc21)S(C)(=O)=O (stereo unspecified) | – | inactive: 6.82%
18 | Clc1ccc(-c2nnc(Sc3nc4ccccc4o3)c3ccccc23)cc1 | active: 6.31 µM | –
19 | Cc1cc(C)cc(NC(=O)CN2CCc3cc4c(cc3C2C)OCCCO4)c1 (stereo unspecified) | – | inactive: 13.4%
20 | COc1ccc(-c2ccc(SCC(=O)NC3CCCC3)nn2)cc1OC | – | inactive: -5.8%
21 | Cc1ccccc1NC(=O)CC1S/C(=N/c2nccs2)N(C)C1=O (stereo unspecified) | inconclusive: 8.91 µM [inhibitor, partial curve] | –
22 | O=C(CSc1nc2ccccc2[nH]1)NC(=O)NCc1ccco1 | inconclusive: 17.8 µM [activator, partial curve, poor fit] | –
23 | Cn1ccc(NC(=O)Nc2ccc(Cl)cc2Cl)n1 | inconclusive: 8.91 µM [activator, partial curve] | –
24 | Cc1ccc(N2C(=O)C3C(C2=O)C(C(=O)c2ccc(Cl)cc2)N2CCCC32)cc1 (stereo unspecified) | inconclusive: 17.8 µM [inhibitor, single point] | –

Quoted at random: 5 entries already listed.
Row | Compound | Potency | activity change, negative = inhibition
20 | COc1ccc(-c2ccc(SCC(=O)NC3CCCC3)nn2)cc1OC | – | inactive: -5.8%
5 | N#Cc1c(Cl)nsc1NN | inconclusive: 35.5 µM [inhibitor, single point] | –
12 | Fc1ccccc1-c1n[nH]c(=S)n1/N=C/c1c[nH]c2ccccc12 | inconclusive: 11.2 µM [inhibitor, partial curve] | –
7 | CCOc1cc(CNCCc2ccc(S(N)(=O)=O)cc2)ccc1OCc1ccc(Cl)cc1 | inconclusive: 35.5 µM [inhibitor, single point] | –
16 | CCn1c(=O)c(C(=O)NCc2ccc(Cl)cc2)c(O)c2ccccc21 | inconclusive: 35.5 µM [inhibitor, single point] | –

Carrying on:

Row | Compound | Potency | activity change, negative = inhibition
25 | CC(C)N1C(=O)S/C(=C\c2ccc(-c3ccc(Cl)c(C(=O)O)c3)o2)C1=O | inconclusive: 12.6 µM [inhibitor, partial curve] | –
26 | OC(COC(c1ccccc1)c1ccccc1)CN1CCc2ccccc2C1 (stereo unspecified) | inconclusive: 15.8 µM [activator, single point] | –
27 | CCCCCOC(=O)C1[C@H]2C(=O)N(Cc3cccs3)C[C@]23C=C[C@H]1O3 (stereo partly specified) | inconclusive: 35.5 µM [inhibitor, single point] | –
28 | O=C(O)c1ccccc1C(=O)Nc1cc(-c2ccccc2)[nH]n1 | – | inactive: 3.13%
29 | CCCCCNC(=O)c1ccc2c(=O)n(CCOC)c(=O)[nH]c2c1 | inconclusive: 1.78 µM [inhibitor, partial curve, poor fit] | –
30 | CC(=O)CC1(O)C(=O)N(Cc2ccccc2)c2ccccc21 (stereo unspecified) | – | inactive: -0.0803%
31 | COc1ccccc1NC(=S)NC1CCC(CC2CCC(NC(=S)Nc3ccccc3OC)CC2)CC1 (stereo unspecified) | active: 3.55 µM | –
32 | CC12CCC(=O)N1C(C(=O)NCCc1ccccc1)CS2 (stereo unspecified) | active: 7.94 µM | –
33 | O=C(O)c1cc(C2CC2)nn1-c1ccccc1 | – | inactive: 0.694%
34 | C/C(N)=C(/C#N)C(=O)CSc1nc2ccccc2c(=O)n1Cc1ccc(F)cc1 | active: 2.82 µM | –
35 | CCCCC/C=N/NC(=O)c1[nH]c2ccc([N+](=O)[O-])cc2c1C | inconclusive: 10 µM [inhibitor, partial curve] | –
36 | COc1ccc(CC(=O)NC(C)c2nnc(SCC(=O)c3ccc(Br)cc3)n2C)cc1 (stereo unspecified) | inconclusive: 15.8 µM [inhibitor, single point] | –
37 | Cc1cccc(NS(=O)(=O)c2cccc3cccnc23)n1 | inconclusive: 35.5 µM [inhibitor, single point] | –
38 | C=CCN1C(=O)C(Cc2ccc(Br)cc2)S/C1=N\N=C\c1ccco1 (stereo unspecified) | active: 14.1 µM | –
39 | Cn1c2c(c(=O)n(C)c1=O)CN(CCc1ccccc1)CN2 | – | inactive: -30.3%
40 | O=C(Oc1ccccc1/C=C\C(=O)c1cc2ccccc2o1)c1cccc(F)c1 | inconclusive: 25.1 µM [inhibitor, single point] | –
41 | COc1cc(SC#N)ccc1N=Cc1c(C)[nH]n(-c2cccc3ccccc23)c1=O | inconclusive: 35.5 µM [inhibitor, single point] | –
42 | O=C(Nc1ccc2c(c1)OCCO2)C(=O)c1c[nH]c2ccccc12 | active: 2.51 µM | –
43 | COc1ccc(-c2nnc(SCC(=O)Nc3sc4c(c3C#N)CCC4)n2CC2CCCO2)cc1 (stereo unspecified) | inconclusive: 12.6 µM [activator, single point] | –
44 | C/C(=N\NC(=O)C1COc2ccccc2O1)c1ccccn1 (stereo unspecified) | active: 1.78 µM | –
45 | COc1cccc(N/C(C)=C/C(=O)c2ccc(Br)cc2)c1 | inconclusive: 35.5 µM [inhibitor, single point] | –
46 | O=C(Nc1ccc(N2CCN(C(=O)c3cccs3)CC2)cc1)c1ccc([N+](=O)[O-])o1 | active: 12.6 µM | –
47 | CSc1ccccc1C(=O)NCc1ccc2c(c1)OCO2 | inconclusive: 0.282 µM [inhibitor, single point] | –
48 | Cc1cc(C(=O)OCC(=O)Nc2cc(C(F)(F)F)ccc2N2CCOCC2)c(C)o1 | inconclusive: 17.8 µM [activator, partial curve] | –

Row | Compound | Potency | activity change, negative = inhibition
49 | O=C(N=C1SC2CS(=O)(=O)CC2N1c1ccc(F)cc1F)C1CC1 (stereo unspecified) | inconclusive: 1.58 µM [inhibitor, partial curve] | –
50 | CCOC(=O)c1nc(C)sc1-c1ccnn1S(=O)(=O)c1cccc(Cl)c1 | inconclusive: 12.6 µM [activator, partial curve] | –
51 | CC(=O)N1CCCc2cc(S(=O)(=O)N3CCN(c4ccccn4)CC3)ccc21 | inconclusive: 12.6 µM [activator, partial curve] | –
52 | O=C(Nc1cccn(Cc2ccccc2Cl)c1=O)NC1CCCCC1 | inconclusive: 11.2 µM [activator, partial curve] | –
53 | CCCCn1c(=N)n(CC(=O)c2ccc(OC)cc2)c2ccccc21 | inconclusive: 14.1 µM [inhibitor, single point] | –
54 | CSC(=NC#N)N1CCN(c2ccc([N+](=O)[O-])cc2)CC1 | inconclusive: 31.6 µM [activator, single point] | –
55 | O=C(O)/C(=C\c1cccc(OCc2ccccc2)c1)c1ccc(F)cc1 | – | inactive: -1.95%
56 | Cn1nnc2sc3c(c2c1=O)CCCC3 | – | inactive: 3.81%
57 | CN(C)c1ccc(NC(=O)Cn2cc3c(n2)CCCC3)cc1 | inconclusive: 5.01 µM [activator, partial curve] | –
58 | N#C/C(=C(/O)c1ccc(Cl)c([N+](=O)[O-])c1)c1nc2ccccc2[nH]1 | active: 12.6 µM | –
59 | Cc1ccc(NC(=O)COc2ccc(/C=N/NC(=O)CSCc3ccccc3)cc2)cc1 | inconclusive: 17.8 µM [activator, single point] | –
60 | O=C(Nc1ccc(F)cc1)c1cc(-c2ccccn2)nc2c(Cl)cccc12 | active: 12.6 µM | –
61 | COc1ccc(/C=N/NC(=O)c2cccnc2)cc1COc1ccc([N+](=O)[O-])c(C)c1 | – | inactive: -40.8%
62 | OCCNc1nc2ccccc2n1-c1ccccc1 | – | inactive: 16.8%
63 | O=C/C=C/c1c(-c2ccccc2)cc2oc3ccccc3cc1-2 | inconclusive: 35.5 µM [inhibitor, single point] | –
64 | COCCCn1c(=S)[nH]c2sc3c(c2c1=O)CCCS3 | active: 1 µM | –
65 | CO/N=C/C(=N\Nc1ccccc1)C(=O)c1ccccc1 | inconclusive: 35.5 µM [activator, single point] | –
66 | O=Cc1ccc(OC2C=CC(c3ccccc3)OC2CO)cc1 (stereo unspecified) | – | inactive: 1.26% [at 10 µM]
67 | Cc1cccc(N2CCN(C(=O)COc3cc(=O)n(C)c4ccccc34)CC2)c1C | inconclusive: 31.6 µM [activator, single point] | –
68 | CCn1ccnc1CN1CCCC(C(=O)c2ccc3c4c(cccc24)CC3)C1 (stereo unspecified) | active: 1.26 µM | –
69 | COc1ccc(/C=N\NC(=O)c2ccc(F)cc2)cc1COc1cc(F)ccc1[N+](=O)[O-] | inconclusive: 22.4 µM [inhibitor, single point] | –
70 | O=C(NNC(=S)NC(=O)c1ccc(Br)cc1)c1cccc([N+](=O)[O-])c1 | active: 14.1 µM | –
71 | Cc1cccc(NC(=S)N(CCN2CCOCC2)Cc2ccccc2F)c1 | active: 12.6 µM | –

From PubChem BioAssay AID2551 (National Center for Advancing Translational Sciences (NCATS), 2010)
